Reference: PubChem BioAssay AID2551 (National Center for Advancing Translational Sciences (NCATS), 2010)
Among all 310,000 compounds or so, about 17,000 (5.5%) were called active. The inconclusive results got no clear call from the source; some entries with a clear call stand among them for comparison. Calls follow the shape of the dose curve; as a rule, active = well fitted inhibition curve with a large enough effect; inconclusive = small, poorly fitted or top-dose-only effect, or effect the other way; inactive = no such curve, though single readings can be large or run the other way. Potencies of inconclusive entries are doubtful fits and often do not repeat.

Amino acid sequences for entries named in this document (tags omitted). A change or cut given only in a name is not applied to a line headed by its entry.
UniProt P51450: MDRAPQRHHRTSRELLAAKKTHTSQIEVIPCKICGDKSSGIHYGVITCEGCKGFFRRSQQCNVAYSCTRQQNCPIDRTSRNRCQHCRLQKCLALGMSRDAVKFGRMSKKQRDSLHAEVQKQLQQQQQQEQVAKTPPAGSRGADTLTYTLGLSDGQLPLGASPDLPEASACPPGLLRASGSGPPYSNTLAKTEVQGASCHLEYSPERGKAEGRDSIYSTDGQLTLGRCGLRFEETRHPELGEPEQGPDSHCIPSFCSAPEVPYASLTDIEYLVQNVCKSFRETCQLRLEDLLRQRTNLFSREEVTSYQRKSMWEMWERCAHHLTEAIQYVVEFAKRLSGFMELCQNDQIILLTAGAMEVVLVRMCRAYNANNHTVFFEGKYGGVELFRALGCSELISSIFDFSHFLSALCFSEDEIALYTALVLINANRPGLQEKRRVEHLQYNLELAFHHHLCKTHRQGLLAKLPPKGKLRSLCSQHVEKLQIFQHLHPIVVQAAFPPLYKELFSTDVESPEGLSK

Each compound was assayed against Nuclear receptor ROR-gamma (Mus musculus) (UniProt P51450) (assay: qHTS for inhibitors of ROR gamma transcriptional activity). Conditions: Drosophila S2 Gal4-RORgamma UAS-luciferase reporter, 20 h; activity change, negative = inhibition: at 53.6 µM (top of the series).
Procedure, shortened: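 Drosophila S2 cells stably expressing Gal4-DBD/mouse RORγ fusion under metallothionein promoter plus UAS-luciferase; compound 1 h, then 700 uM CuSO4 induction for 20 h at ambient temperature; inhibition read as reduced luminescence.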
% is scaled to controls: 0 for no effect and ±100 for the full control effect; potency is read from the fitted curve at half-maximal effect.
Also: nearly all actives have a fitted effect of over 60% in size.

Structure (SMILES) | Potency | activity change, negative = inhibition
CC/C(=N/Nc1ccc(Cl)cc1)c1cnnc(SC)n1 | inactive | –
C=C(C)CNC(=S)N/N=C/c1ccc(NC(C)=O)cc1 | inconclusive: 15.8 µM [inhibitor, single point] | –
O=C(Nc1nnc(-c2ccc(Cl)s2)o1)C1CC1 | inactive | –
CCOc1ccc(C(C)=O)cc1Cc1c(O)nc(N)[nH]c1=O | – | inactive: 27.2% [at 10 µM]
O=C(CNC(=O)c1ccccc1)NCC1COc2ccccc2O1 (stereo not drawn) | inconclusive: 15.8 µM [inhibitor, partial curve, poor fit] | –
O=C(/C=C/c1ccc(Cl)cc1)N1CCN(c2ccccc2[N+](=O)[O-])CC1 | inconclusive: 35.5 µM [activator, single point] | –
CC1=CC(=C(C#N)c2nc3ccccc3s2)C=C(C)N1c1ccc(F)cc1 | inconclusive: 12.6 µM [activator, single point] | –
O=C(N/N=C/c1c(F)c(F)c(F)c(F)c1F)c1cccc(S(=O)(=O)N2CCOCC2)c1 | inactive | –
Cc1ccc(OCc2n[nH]c(=S)n2-c2ccccc2)cc1 | active: 0.708 µM | –
CCCCOc1cccc(-c2cc(C(=O)NNC(=S)NCC)c3ccccc3n2)c1 | inactive | –
CC(=O)C(Sc1ccc2nnc(-c3ccncc3)n2n1)C(C)=O | inconclusive: 35.5 µM [activator, single point] | –
COc1ccc(C)cc1NC(=S)NNC(=O)c1ccccc1Cl | inconclusive: 7.08 µM [inhibitor, partial curve, poor fit] | –
O=C(Nc1cccc(-c2nn[nH]n2)c1)c1cccs1 | active: 7.94 µM | –
O=c1c(-c2cc(F)cc(F)c2)nc2cncnc2n1Cc1ccccc1 | inactive | –
c1sc2[n+](c1C13CC4CC(CC(C4)C1)C3)CCS2 | inconclusive: 17.8 µM [activator, single point] | –
C=CCn1c(C(CCCC)CC(O)COCCC)n[nH]c1=S (stereo not drawn) | active: 7.08 µM | –
O=C(O)c1cccc(COc2ccc(CO)cc2Cl)c1 | active: 1.78 µM | –
O=C(Nc1ccn(Cc2ccccc2F)n1)c1ccc(COc2ccccc2Cl)cc1 | inconclusive: 12.6 µM [activator, single point] | –
CC1CCCC(C)N1CCCNC(=O)c1cc2c(s1)-c1ccccc1OC2 (stereo not drawn) | inactive | –
CCN(CC)CC(=O)Nc1nc(-c2ccc(Cl)cc2)cs1 | active: 8.91 µM | –
CCc1ccc(C2C(C#N)=C(N)SC(N)=C2C#N)s1 | inconclusive: 35.5 µM [inhibitor, single point] | –
O=[N+]([O-])c1ccccc1/C=C/C=N/n1c(-c2ccccc2)n[nH]c1=S | active: 6.31 µM | –
CCc1ccc(N/C(SCc2ccccc2C)=C(/C#N)C(=O)NCc2ccco2)cc1 | inconclusive: 10 µM [inhibitor, partial curve, poor fit] | –
O=C(O)c1ccc(CSc2nc(-c3ccc(Cl)cc3)cc(C(F)(F)F)n2)cc1 | inactive | –
c1ccc(-c2cnc(-c3cccnc3)o2)cc1 | inconclusive: 7.94 µM [activator, partial curve] | –

Structure (SMILES) | Potency | activity change, negative = inhibition
Cc1cc(C)c2nc(N(CCN(C)C)C(=O)/C=C/c3cccs3)sc2c1 | inactive | –
CCCOc1ccc(C(=O)NC(=S)NCc2cccnc2)cc1 | inconclusive: 35.5 µM [inhibitor, single point] | –
COc1ccc(/C=C2\SC(=S)N(CC(=O)Nc3nnc(C)s3)C2=O)cc1 | inactive | –
COCCNC(=O)/C(C#N)=C/c1ccc(-c2ccc(S(=O)(=O)N3CCOCC3)cc2)o1 | inconclusive: 7.08 µM [activator, partial curve] | –
CCc1ccccc1N(C(=O)CCC(=O)Nc1cc(C)on1)C(C(=O)NC1CCCC1)c1ccco1 (stereo not drawn) | inconclusive: 10 µM [activator, partial curve] | –
COc1ccc(N2CCN(S(=O)(=O)c3ccc4c(c3)NC(=O)C(C)S4)CC2)cc1 (stereo not drawn) | inconclusive: 35.5 µM [activator, single point] | –
CC1=C(C(=O)Nc2cccc([N+](=O)[O-])c2)C2(CCC(C)CC2)OC1=O (stereo not drawn) | inconclusive: 12.6 µM [activator, single point] | –
O=C(O)CC(NC(=O)C1c2ccccc2Oc2ccccc21)c1ccc(Cl)cc1 (stereo not drawn) | inactive | –
CCc1nnc(NC(=O)c2cc(S(=O)(=O)N(C)c3ccc(OC)cc3)ccc2Cl)s1 | inactive | –
COC(=O)c1cc(NC(=O)CC2NC3CCCCC3NC2=O)cc(C(=O)OC)c1 (stereo not drawn) | inconclusive: 12.6 µM [activator, partial curve] | –
Clc1ccc(/C=C/c2nc3ccccc3[nH]2)c(Cl)c1 | inconclusive: 3.98 µM [inhibitor, partial curve, poor fit] | –
CCOC(=O)c1ccc(N2C(=O)CC(Sc3ncccn3)C2=O)cc1 (stereo not drawn) | inconclusive: 28.2 µM [inhibitor, single point] | –
COc1ccc(/C=C2/SC(=S)N(CCC(=O)N3CCN(C)CC3)C2=O)cc1 | active: 10 µM | –
C[C@H]1CC[C@H]2C(=O)N3[C@H](c4cccc(N5CCCC5=O)c4)[C@@H](C)CC[C@H]3C(=O)N2[C@@H]1c1cccc(N2CCCC2=O)c1 | inconclusive: 22.4 µM [activator, single point] | –
O=c1c2sccc2[nH]c(=S)n1Cc1ccccc1 | active: 1.78 µM | –
COc1cccc(NC(=O)COC(=O)c2c(-c3ccccc3)noc2C)c1 | inconclusive: 10 µM [activator, partial curve] | –
O=[N+]([O-])c1ccccc1/C=C/C=N/Nc1nc(N2CCCCC2)nc(N2CCCCC2)n1 | active: 11.2 µM | –
Cc1cc(N2CCC(C)CC2)nc(-n2nc(C)cc2C)n1 | active: 0.398 µM | –
Cc1ccc(NC(=O)c2sc3ccccc3c2Cl)nc1 | inconclusive: 4.47 µM [inhibitor, full curve, poor fit] | –
O=C(CSc1nc2ccccc2c(=O)n1CCCN1CCOCC1)Nc1cccc(S(=O)(=O)N2CCCCCC2)c1 | inconclusive: 35.5 µM [activator, single point] | –
CCn1c(SCC(=O)Nc2cc(C)on2)nc2c([nH]c3ccccc32)c1=O | inconclusive: 7.94 µM [inhibitor, partial curve, poor fit] | –
CCc1nnc(NC(=O)CSCc2cc(=O)n3ccsc3n2)s1 | inactive | –
COc1ccc(Nc2nc(-c3cccs3)nc3ccccc23)cc1 | inconclusive: 12.6 µM [activator, single point] | –
COc1ccc(/C=C2\C(=O)NC(=S)N2C(=O)c2ccc(C)cc2)cc1 | active: 22.4 µM | –
Oc1ccc(-c2csc(Nc3cccc4ccccc34)n2)cc1O | inconclusive: 25.1 µM [inhibitor, single point] | –

No new results follow: 18 of the compounds above.
Structure (SMILES) | Potency | activity change, negative = inhibition
Cc1cc(C)c2nc(N(CCN(C)C)C(=O)/C=C/c3cccs3)sc2c1 | inactive | –
CCCOc1ccc(C(=O)NC(=S)NCc2cccnc2)cc1 | inconclusive: 35.5 µM [inhibitor, single point] | –
COc1ccc(/C=C2\SC(=S)N(CC(=O)Nc3nnc(C)s3)C2=O)cc1 | inactive | –
COCCNC(=O)/C(C#N)=C/c1ccc(-c2ccc(S(=O)(=O)N3CCOCC3)cc2)o1 | inconclusive: 7.08 µM [activator, partial curve] | –
CCc1ccccc1N(C(=O)CCC(=O)Nc1cc(C)on1)C(C(=O)NC1CCCC1)c1ccco1 (stereo not drawn) | inconclusive: 10 µM [activator, partial curve] | –
COc1ccc(N2CCN(S(=O)(=O)c3ccc4c(c3)NC(=O)C(C)S4)CC2)cc1 (stereo not drawn) | inconclusive: 35.5 µM [activator, single point] | –
CC1=C(C(=O)Nc2cccc([N+](=O)[O-])c2)C2(CCC(C)CC2)OC1=O (stereo not drawn) | inconclusive: 12.6 µM [activator, single point] | –
O=C(O)CC(NC(=O)C1c2ccccc2Oc2ccccc21)c1ccc(Cl)cc1 (stereo not drawn) | inactive | –
CCc1nnc(NC(=O)c2cc(S(=O)(=O)N(C)c3ccc(OC)cc3)ccc2Cl)s1 | inactive | –
COC(=O)c1cc(NC(=O)CC2NC3CCCCC3NC2=O)cc(C(=O)OC)c1 (stereo not drawn) | inconclusive: 12.6 µM [activator, partial curve] | –
Clc1ccc(/C=C/c2nc3ccccc3[nH]2)c(Cl)c1 | inconclusive: 3.98 µM [inhibitor, partial curve, poor fit] | –
CCOC(=O)c1ccc(N2C(=O)CC(Sc3ncccn3)C2=O)cc1 (stereo not drawn) | inconclusive: 28.2 µM [inhibitor, single point] | –
COc1ccc(/C=C2/SC(=S)N(CCC(=O)N3CCN(C)CC3)C2=O)cc1 | active: 10 µM | –
C[C@H]1CC[C@H]2C(=O)N3[C@H](c4cccc(N5CCCC5=O)c4)[C@@H](C)CC[C@H]3C(=O)N2[C@@H]1c1cccc(N2CCCC2=O)c1 | inconclusive: 22.4 µM [activator, single point] | –
O=c1c2sccc2[nH]c(=S)n1Cc1ccccc1 | active: 1.78 µM | –
COc1cccc(NC(=O)COC(=O)c2c(-c3ccccc3)noc2C)c1 | inconclusive: 10 µM [activator, partial curve] | –
O=[N+]([O-])c1ccccc1/C=C/C=N/Nc1nc(N2CCCCC2)nc(N2CCCCC2)n1 | active: 11.2 µM | –
Cc1cc(N2CCC(C)CC2)nc(-n2nc(C)cc2C)n1 | active: 0.398 µM | –

(list continues)

Structure (SMILES) | Potency | activity change, negative = inhibition
O=C(CCN1C(=O)/C(=C/c2cccs2)SC1=S)NC1=NCCS1 | active: 15.8 µM | –
CS(=O)(=O)Nc1cccc(C2=NN(S(C)(=O)=O)C(c3ccccc3)C2)c1 (stereo not drawn) | inconclusive: 7.08 µM [activator, partial curve] | –
CCCCNS(=O)(=O)c1ccc(S(=O)(=O)NCc2ccncc2)cc1 | inconclusive: 12.6 µM [activator, partial curve] | –
Nc1nc2n(n1)C(c1ccc(F)cc1)CC(c1ccc(F)cc1)N2 (stereo not drawn) | inconclusive: 6.31 µM [inhibitor, single point] | –
Cc1ccccc1CC1(CO)CCCN(Cc2nc(-c3cccs3)oc2C)C1 (stereo not drawn) | inconclusive: 10 µM [inhibitor, partial curve, poor fit] | –
Cc1cc(C)n(C(=O)CCCCCC(=O)n2nc(C)cc2C)n1 | inconclusive: 3.55 µM [inhibitor, single point] | –
CC(C)C1=CC2=CCC3[C@@](C)(CCC[C@@]3(C)C(=O)O)C2CC1 (stereo partly drawn) | inconclusive: 17.8 µM [activator, partial curve] | –
Cc1ccc(-c2nn(-c3ccccc3)cc2C(=O)O)o1 | inactive | –
COc1ccc(-n2nnnc2-c2nc3ccccc3s2)cc1 | active: 12.6 µM | –
CCS(=O)(=O)Nc1ccc(C(=O)NCCSc2ccccc2)cc1 | inconclusive: 1.58 µM [activator, full curve, poor fit] | –
CCc1c(C)nc2ncnn2c1NCCc1ccccc1 | inconclusive: 15.8 µM [activator, single point] | –
O=C(CN1C(=O)c2cccnc2Oc2ccc(Cl)cc21)NCCCc1ccccc1 | inactive | –
CC(C)c1cccc(C(C)C)c1NC(=S)Nc1cccc(Cl)c1 | inconclusive: 15.8 µM [inhibitor, single point] | –
COc1ccc(NC(=O)CN2CCN(CC(=O)Nc3ccccc3Cl)CC2)cc1Cl | inactive | –
CC1CCN(C(=S)NC(=O)c2cccs2)CC1 | active: 0.251 µM | –
Cc1nc2ccc(NC(=S)NC3CCCCC3)cc2nc1C | active: 5.01 µM | –
CC1=C(C(=O)OC(C)C)C(c2cccnc2)C2=C(CC(C)(C)CC2=O)N1 (stereo not drawn) | inconclusive: 35.5 µM [activator, single point] | –
CCCCNC(=S)NNC(=O)C12CC3CC(CC(C3)C1)C2 | active: 14.1 µM | –
CCOC(=O)c1cnc2ccc(C)cc2c1Sc1ccccc1C(=O)OC | inconclusive: 14.1 µM [inhibitor, single point] | –
Cc1ccc(C(=O)N/C(=C\c2ccc(-c3ccc(Cl)cc3)o2)C(=O)NCCCN(C)C)cc1 | inconclusive: 20 µM [inhibitor, single point] | –
S=C(NCc1ccc(Cl)cc1Cl)Nc1ccccc1 | active: 7.08 µM | –
CCOC(=O)c1ccc(-n2ncc(C(=O)OCC)c2N)cc1 | inconclusive: 14.1 µM [activator, single point] | –
Cn1c(=O)cc(SCC(=O)NCCCN2CCOCC2)c2ccccc21 | inactive | –
